Consider 30 sequences from PubChem BioAssay AID1347426 (Functional Genomics Laboratory (NCATS/FGL), 2020).

Out of some 31,000 sequences screened, about 1,400 (4.5%) were called active.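 How the source made its calls: active means median seed-adjusted z-score above 1 or below -1; inactive means the rest.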 The list shows a part of the results.

The experiment is described as follows: Novel Modifiers of Survival Motor Neuron (SMN) Protein: Gene Identification via Genome-wide siRNA Screen.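 Further: luminescence tracks full-length SMN protein made from the SMN2 reporter.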 As to conditions: HEK293T SMN2-luciferase reporter, siRNA knockdown, 72 h; actives lie on both sides. Summed up:
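HEK293T cells stably carrying an SMN2 promoter/splicing cassette–luciferase reporter were reverse-transfected with 1 pmol siRNA per well (druggable-genome library, 3 siRNAs per gene) and grown 72 h at 37 °C. Luminescence, normalized to negative-control siRNA and log10-transformed, was scored as MAD.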
As for AGAUGUACGCCUUCACUGUTT against NPTX1, the median seed-adjusted z-score was inactive: -0.117.

As to GGCUGAAGCUCUAAAGCGATT against DDX23, the median seed-adjusted z-score was inactive: -0.468.

In the case of CCAGAUGUAUAGUACUGAUTT against ME1, the median seed-adjusted z-score is inactive: -0.258.

For GCAUGCUACCUCAAGUCAATT against IL15RA, the median seed-adjusted z-score is inactive: -0.0113.

Take CUAUUACUCUUGCAGCUAUTT against TBC1D9: the median seed-adjusted z-score is inactive: -0.0473.

On to GGUCUGGAGUUCAAACUCUTT against TMTC1, for which the median seed-adjusted z-score was inactive: -0.147.

CUACAGGAAUAUUACUUUATT against DCPS: the median seed-adjusted z-score is inactive: 0.669.

In the case of AGACUUUAAGGAGAAAACATT against YAF2, the median seed-adjusted z-score was inactive: 0.

For CGGUGAUUGUGGAGAUGAATT against MAG, the median seed-adjusted z-score is inactive: -0.0667.

UCAGCUAUUUCAUCAAAUATT against ZDHHC15: the median seed-adjusted z-score is inactive: 0.548.

For AGGGAAAUGUCCAAAACAUTT against CYB5A, the median seed-adjusted z-score was inactive: 0.226.

Regarding CAUUUUGAAUGAGAUUGUATT against SLC1A2, the median seed-adjusted z-score was inactive: 0.249.

Regarding GCAUCGUGCUUCACAACAUTT against RNF152, the median seed-adjusted z-score is inactive: -0.745.

Regarding CCUGUUACAUUAAGUAGAATT against P2RY5, the median seed-adjusted z-score is inactive: 0.0278.

Regarding CCCUAUUACCCUAUUCUUATT against RAB6A, the median seed-adjusted z-score was inactive: 0.102.

GCAAGGGUCUCGGAUUAUATT against TMPRSS12: the median seed-adjusted z-score is inactive: 0.0961.

As for GCCUCAAAGCAGCACCUAATT against DIO3, the median seed-adjusted z-score is inactive: 0.0911.

As to GAGUUCAUGUGAUUCGCAATT against TBX15, the median seed-adjusted z-score was inactive: 0.265.

As for CAAGAGCCCUUGGGACAUATT against LIPI, the median seed-adjusted z-score was inactive: 0.65.

On to GCCUAGGUCUCUUAGAUGATT against ATF4, for which the median seed-adjusted z-score was inactive: 0.

For AGAAAAACACUUUCCGAAATT against TM7SF2, the median seed-adjusted z-score is inactive: -0.674.

Take CAAUGAACACGGCACGCAATT against UCKL1: the median seed-adjusted z-score is inactive: 0.695.

With GCAGGUCAGUUAUCAGACUTT against SLC17A1, the median seed-adjusted z-score was inactive: -0.271.

As to ACAACAUCCUUUACCUACATT against USP35, the median seed-adjusted z-score was inactive: -0.219.

On to GACAAGAAGUUUACGCGUUTT against KLF14, for which the median seed-adjusted z-score is inactive: 0.0241.

For GAUACAUGAAGGUAUACAATT against POLR3G, the median seed-adjusted z-score was inactive: -0.485.

With CACUGUUUAUGUAUAUGGATT against RHOT1, the median seed-adjusted z-score is inactive: -0.189.

In the case of GGAGGAGACAGCAAACGUATT against MAP1A, the median seed-adjusted z-score is inactive: -0.17.

In the case of GGUCUCUCCUAAUCCAGAATT against BIN2, the median seed-adjusted z-score was inactive: 0.205.

With CAAUAAAGCGUAUCGGAAATT against DNAJC27, the median seed-adjusted z-score is inactive: 0.252.
